Measurements reported in PubChem BioAssay AID504786 (Drosophila RNAi Screening Center, 2011).
In all, the deposit lists about 21,000 reagents; below is an unselected part of those with a known target gene and a result. 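Primary screen; positive scores mean lost reporter signal, so the sign may be inverted from the usual convention.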 Names joined by + are all predicted targets of the reagent.

- Purpose: 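Positive regulators of HIF-driven reporter output in Drosophila cells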 (primary screen)
- System: Drosophila S2 cells with a stable HIF luciferase reporter
- Reagent: long dsRNA against Drosophila genes, about 0.2 µg dsRNA per well of a 384-well plate
- Time to read-out: three days of knock-down, then 20 h of DFO before reading
- Challenge: desferrioxamine (DFO) at 100 µM, an iron chelator that mimics hypoxia, for 20 h
- Read-out: 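Firefly luciferase driven by the mouse ldh-a hypoxia-response element, measured after 20 h of 100 µM DFO; z-scores per plate, higher means more signal lost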
- Scale: z-score: higher = stronger loss of HIF reporter signal

Target gene | dsRNA | z-score, replicate 1 | z-score, replicate 2 | z-score, replicate 3 | z-score, replicate 4
CG7304 | DRSC10804 | -0.1 | -0.5 | – | –
MsR2 + CG13802 (retired record) | DRSC08336 | -0.4 | -0.6 | – | –
MsR2 + CG13802 (retired record) | DRSC08337 | -0.3 | -0.9 | – | –
dany | DRSC04141 | -0.2 | -0.2 | – | –
Tsp42A | DRSC04862 | -0.4 | 0 | – | –
CG14017 | DRSC02348 | -0.2 | 0.1 | – | –
ND-51L1 | DRSC06072 | -0.3 | -0.2 | – | –
Vm26Ab | DRSC03473 | -0.4 | -0.1 | 0.1 | -0.3
hubl | DRSC06825 | -0.3 | -0.5 | – | –
5-HT1A | DRSC05030 | 0 | 0.1 | – | –
CG3581 | DRSC15499 | -0.8 | 0 | – | –
Coq3 | DRSC03168 | -0.3 | -0.5 | – | –
FucTD | DRSC08634 | 0 | 0 | – | –
soti | DRSC16432 | -0.3 | -0.3 | – | –
Fs | DRSC06258 | -0.3 | -0.3 | – | –
Fs | DRSC06259 | -0.4 | -0.1 | – | –
CG17601 | DRSC20639 | 0.1 | -0.3 | – | –
TpnC47D | DRSC07564 | -0.3 | -0.1 | – | –
GstE7 | DRSC06677 | -0.2 | 0.2 | – | –
CG2217 + CG42740 | DRSC14141 | -0.4 | -0.4 | – | –
CG4681 | DRSC04481 | -0.2 | -0.2 | – | –
CG16812 | DRSC02519 | -0.4 | -0.7 | – | –
Phf5a | DRSC03261 | 0.9 | 0.9 | – | –
S6kII | DRSC20645 | -0.3 | -1.1 | – | –
Tmem214 | DRSC02924 | 0.7 | 0.1 | – | –
Tmem214 | DRSC02925 | -0.2 | -0.4 | – | –
CG16965 | DRSC02547 | -0.3 | -0.3 | – | –
CG16959 | DRSC10230 | -0.3 | -0.5 | – | –
GlyRS | DRSC10711 | -0.2 | -0.1 | – | –
AttD | DRSC16272 | -0.3 | -0.4 | – | –
polybromo | DRSC14307 | 0.3 | 0.5 | – | –
AstCC | DRSC02404 | -0.4 | -0.7 | – | –
myd | DRSC14762 | 2.5 | 3.4 | – | –
myd | DRSC15512 | -0.8 | -0.2 | – | –
CG2063 | DRSC06811 | -0.1 | 1.1 | – | –
Bicra | DRSC14417 | 0 | -0.5 | – | –
CG4887 | DRSC00670 | -0.2 | -0.4 | – | –
Zdhhc8 | DRSC18044 | 0.8 | 1.8 | – | –
Zdhhc8 | DRSC18122 | -0.4 | -0.2 | – | –
Pif1A + Pif1B | DRSC14142 | 0.2 | -0.8 | – | –
Pif1A + Pif1B | DRSC14380 | -0.4 | -0.6 | – | –
Pif1A + Pif1B | DRSC14381 | 0.1 | -0.5 | – | –
CG12490 | DRSC04123 | -0.3 | -0.3 | – | –
Xrcc2 | DRSC19984 | -0.1 | -0.3 | – | –
Hsf | DRSC07443 | -0.2 | -0.4 | – | –
CG32121 | DRSC09265 | -0.5 | -0.3 | – | –
Psf3 | DRSC18216 | -0.3 | -0.5 | – | –
Drsl4 | DRSC08034 | -0.1 | 0.6 | – | –
sosie | DRSC14636 | -0.4 | -0.6 | – | –
CG14367 | DRSC14829 | -0.3 | -0.4 | – | –
st | DRSC11399 | -0.2 | 1 | – | –
CG2811 | DRSC04318 | 0.1 | 0.1 | – | –
MESK2 | DRSC04258 | -0.3 | -0.7 | – | –
Setd3 | DRSC17840 | -0.2 | -0.1 | – | –
Setd3 | DRSC18269 | -0.2 | -0.6 | – | –
CG40006 | DRSC03787 | 0.5 | 0.6 | – | –
CG40006 | DRSC03809 | 0.1 | -0.2 | – | –
CG40006 | DRSC03814 | 0.1 | 0.2 | – | –
CG40006 | DRSC03817 | 0 | -0.1 | – | –
Mtap | DRSC06890 | 0 | -0.1 | – | –
CG32269 + CG32270 | DRSC08195 | -0.3 | -0.4 | – | –
CG6209 | DRSC06968 | 0 | -0.1 | – | –
CG17050 (retired record) | DRSC06651 | -0.4 | -0.6 | – | –
CG13658 | DRSC14659 | -0.3 | -0.2 | – | –
stet | DRSC08246 | -0.3 | 0.3 | – | –
stet | DRSC08283 | -0.5 | 0.8 | – | –
Cisd2 | DRSC14904 | 0 | 0.1 | – | –
O-fut1 | DRSC06138 | -0.2 | -0.5 | – | –
mael | DRSC11894 | -0.3 | -0.2 | – | –
CG42362 + CG42363 | DRSC04265 | 0 | 0.4 | – | –
CG18789 | DRSC02696 | -0.2 | -0.3 | – | –
Hacd1 | DRSC02988 | -0.2 | -0.3 | – | –
CG16984 | DRSC08500 | -0.3 | -0.2 | – | –
CG31287 | DRSC13138 | -0.2 | -0.3 | – | –
Ugt302K1 | DRSC16086 | -0.2 | 0.9 | – | –
Shal | DRSC09625 | -0.4 | -1.6 | – | –
Shal | DRSC11283 | -0.3 | -0.4 | – | –
CG15048 (retired record) | DRSC19624 | 0.1 | 0.4 | – | –
Arl1 | DRSC09667 | -0.2 | -0.2 | – | –
CG15710 | DRSC06581 | -0.3 | -1 | – | –
CG8858 | DRSC07290 | -0.4 | -0.1 | – | –
CG11836 | DRSC14396 | 0 | 0.1 | – | –
Spn27A | DRSC03608 | -0.2 | -0.6 | – | –

Limited to “z-score, replicate 2” (10 entries from above):
GstE7 [DRSC06677]: 0.2
CG2217 + CG42740 [DRSC14141]: -0.4
CG4681 [DRSC04481]: -0.2
CG16812 [DRSC02519]: -0.7
Phf5a [DRSC03261]: 0.9
S6kII [DRSC20645]: -1.1
Tmem214 [DRSC02924]: 0.1
Tmem214 [DRSC02925]: -0.4
CG16965 [DRSC02547]: -0.3
CG16959 [DRSC10230]: -0.5
